These are yes or no findings as the source states them, for the method shown. Binding seen in cells or lysates may run through a third protein. Some entries that bind do so weakly or less than the wild type.
Columns and labels:
[1] = target: FLAG-tagged HDAC3 G267S variant (HEK293T) (human) (UniProt O15379); experiment: co-IP
[2] = target: FLAG-tagged HDAC3 R359C variant (HEK293T) (human) (UniProt O15379); experiment: co-IP

By UniProt entry, the sequences of proteins in these tests, tags left out. Where a name states a change or a piece, a line headed by the entry shows the natural chain unless it says otherwise.
UniProt O15379: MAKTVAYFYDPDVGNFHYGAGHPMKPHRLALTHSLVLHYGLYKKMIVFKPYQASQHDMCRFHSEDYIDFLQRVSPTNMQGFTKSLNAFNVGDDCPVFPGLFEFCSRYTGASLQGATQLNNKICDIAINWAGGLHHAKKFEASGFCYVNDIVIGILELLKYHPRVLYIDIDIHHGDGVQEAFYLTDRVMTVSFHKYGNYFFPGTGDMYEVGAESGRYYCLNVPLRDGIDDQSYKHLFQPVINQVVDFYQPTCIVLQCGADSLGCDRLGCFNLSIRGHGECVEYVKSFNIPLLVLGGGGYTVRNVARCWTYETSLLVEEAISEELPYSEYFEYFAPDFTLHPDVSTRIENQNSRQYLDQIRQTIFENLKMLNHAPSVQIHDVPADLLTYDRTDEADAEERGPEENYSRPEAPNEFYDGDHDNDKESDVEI
UniProt O75376: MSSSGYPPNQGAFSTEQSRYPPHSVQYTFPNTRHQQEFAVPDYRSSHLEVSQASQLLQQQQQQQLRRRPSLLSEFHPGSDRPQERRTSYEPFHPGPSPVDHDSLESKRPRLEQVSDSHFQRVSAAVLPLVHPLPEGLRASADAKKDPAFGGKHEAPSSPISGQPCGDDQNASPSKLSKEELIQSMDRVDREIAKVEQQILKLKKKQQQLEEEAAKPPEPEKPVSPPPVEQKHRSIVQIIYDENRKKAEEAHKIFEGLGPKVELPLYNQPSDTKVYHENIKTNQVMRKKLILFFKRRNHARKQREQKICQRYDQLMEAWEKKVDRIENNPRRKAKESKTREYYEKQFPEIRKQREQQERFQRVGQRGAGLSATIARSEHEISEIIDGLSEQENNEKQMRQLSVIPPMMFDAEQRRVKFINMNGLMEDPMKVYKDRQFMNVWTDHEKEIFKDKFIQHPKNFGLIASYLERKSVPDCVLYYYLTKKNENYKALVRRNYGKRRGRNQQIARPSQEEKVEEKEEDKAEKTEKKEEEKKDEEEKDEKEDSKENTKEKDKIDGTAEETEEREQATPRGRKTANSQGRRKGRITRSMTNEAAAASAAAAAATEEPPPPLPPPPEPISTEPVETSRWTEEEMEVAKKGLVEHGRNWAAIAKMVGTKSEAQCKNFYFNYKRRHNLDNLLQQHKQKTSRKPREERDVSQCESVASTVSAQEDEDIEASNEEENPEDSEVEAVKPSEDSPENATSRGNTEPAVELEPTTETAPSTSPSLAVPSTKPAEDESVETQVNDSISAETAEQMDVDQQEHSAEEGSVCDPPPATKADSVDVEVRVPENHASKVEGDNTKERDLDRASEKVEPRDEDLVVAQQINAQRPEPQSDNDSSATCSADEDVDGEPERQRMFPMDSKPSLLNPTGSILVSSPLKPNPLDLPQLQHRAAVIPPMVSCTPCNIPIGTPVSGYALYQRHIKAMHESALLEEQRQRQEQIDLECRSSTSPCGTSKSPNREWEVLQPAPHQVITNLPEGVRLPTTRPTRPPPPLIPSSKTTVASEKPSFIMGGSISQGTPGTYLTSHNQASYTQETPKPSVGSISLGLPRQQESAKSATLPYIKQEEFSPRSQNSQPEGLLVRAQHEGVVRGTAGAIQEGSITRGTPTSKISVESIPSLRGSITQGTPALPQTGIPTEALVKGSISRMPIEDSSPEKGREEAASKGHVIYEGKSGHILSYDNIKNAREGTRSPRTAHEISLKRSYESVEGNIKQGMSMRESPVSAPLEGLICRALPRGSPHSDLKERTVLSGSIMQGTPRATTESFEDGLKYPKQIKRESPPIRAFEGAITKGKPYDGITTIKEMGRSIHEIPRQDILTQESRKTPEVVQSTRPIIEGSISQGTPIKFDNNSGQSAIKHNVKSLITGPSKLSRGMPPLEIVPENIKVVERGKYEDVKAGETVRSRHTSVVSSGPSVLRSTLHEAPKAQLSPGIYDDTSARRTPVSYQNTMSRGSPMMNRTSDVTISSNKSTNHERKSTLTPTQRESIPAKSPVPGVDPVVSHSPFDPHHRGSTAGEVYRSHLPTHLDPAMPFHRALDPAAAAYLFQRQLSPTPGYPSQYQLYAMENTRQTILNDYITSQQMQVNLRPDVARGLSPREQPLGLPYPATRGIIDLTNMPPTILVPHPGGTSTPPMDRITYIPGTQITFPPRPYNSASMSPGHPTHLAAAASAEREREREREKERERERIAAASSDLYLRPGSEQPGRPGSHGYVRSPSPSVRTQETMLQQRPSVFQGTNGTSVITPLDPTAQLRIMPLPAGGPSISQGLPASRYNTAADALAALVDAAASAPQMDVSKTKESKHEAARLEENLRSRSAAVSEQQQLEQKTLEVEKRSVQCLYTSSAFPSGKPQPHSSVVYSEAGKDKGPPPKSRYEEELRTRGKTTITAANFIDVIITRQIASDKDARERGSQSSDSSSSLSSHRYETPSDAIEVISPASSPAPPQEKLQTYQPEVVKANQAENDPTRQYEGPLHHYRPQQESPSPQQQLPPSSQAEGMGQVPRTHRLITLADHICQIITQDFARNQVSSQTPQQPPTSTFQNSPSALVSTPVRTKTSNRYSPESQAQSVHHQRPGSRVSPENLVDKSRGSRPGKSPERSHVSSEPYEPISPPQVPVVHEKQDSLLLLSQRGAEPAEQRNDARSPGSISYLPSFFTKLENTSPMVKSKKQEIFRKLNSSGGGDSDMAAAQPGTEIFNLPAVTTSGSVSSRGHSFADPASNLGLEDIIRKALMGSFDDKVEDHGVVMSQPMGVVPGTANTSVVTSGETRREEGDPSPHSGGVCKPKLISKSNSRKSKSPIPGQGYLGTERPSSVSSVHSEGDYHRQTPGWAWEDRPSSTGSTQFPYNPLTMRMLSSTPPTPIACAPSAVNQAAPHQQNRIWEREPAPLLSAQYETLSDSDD

binding [1]: binds
binding [2]: binds
Substance: nuclear receptor co-repressor 1 (NCoR1), full-length (from UniProt O75376 1-2440)

Source: doi:10.1101/2024.01.29.24301801
